Results reported in PubChem BioAssay AID504444 (National Center for Advancing Translational Sciences (NCATS), 2011).
Where “and” joins values, the source holds several entries; their conditions need not be identical. Equal entries are not always repeated. The whole screen tested about 360,000 compounds, of which about 7,500 (2.1%) were called active. This list was built around the results that the source calls inconclusive (neither active nor inactive); the mix of calls is not that of the screen. The call rests on the fitted dose curve; in most records, active means well fitted inhibition curve with a large enough effect; inconclusive means small, poorly fitted or top-dose-only effect, or effect the other way; inactive means flat fitted curve, though single readings scatter. Potencies of inconclusive entries are doubtful fits and often do not repeat.

assay: Nrf2 qHTS screen for inhibitors; conditions: A549 ARE-Fluc reporter, luciferase luminescence, 18-24 h; activity change, negative = inhibition: at 46 µM (top of the series); further: nearly all actives have a fitted effect of over 60% in size
Outline: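 A549 ARE_Fluc cells, 5000/well, 5% FBS OPTI-MEM; compounds in dose-response, 18-24 h at 37 °C/5% CO2; CellTiter-Fluor viability read (Ex 405/Em 525), then BugLite luciferase luminescence = Nrf2 activity.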
On the % scale 0 is the no-effect control and ±100 the full control effect; potency means the concentration at half of the fitted maximal effect.

Row | Compound | Potency | activity change, negative = inhibition
1 | Cc1ccc2c(CN3CCN(S(=O)(=O)c4ccc(Cl)cc4)CC3)cc(=O)oc2c1C | inconclusive: 5.8 µM [falling, partial curve, poor fit] | 
2 | Cc1ccc(CC(=O)Nc2ncc([N+](=O)[O-])s2)cc1 | inconclusive: 6.51 µM [activator, single point] | 
3 | O=C(Cc1ccc(Cl)c(Cl)c1)N/N=C/c1cccnc1 | inconclusive: 16.4 µM [falling, single point] | 
4 | O=C(N/N=C/c1ccc(-c2ccc(S(=O)(=O)Nc3ncccn3)cc2)o1)c1cc2ccccc2cc1O |  | inactive: -4.95%
5 | CCS(=O)(=O)c1ncc(Cl)c(C(=O)Nc2ccc(S(=O)(=O)N(C)c3ccccc3)cc2)n1 | inconclusive: 20.6 µM [falling, single point] and inconclusive: 16.4 µM [falling, single point] | 
6 | c1ccc(-n2ncc3c(N4CCC5(CC4)OCCO5)ncnc32)cc1 | inconclusive: 2.06 µM [activator, full curve, poor fit] | 
7 | CC1CCCCN1CCNC(=O)c1ccc(Cn2c(SCc3ccccc3)nc3cccnc32)cc1 (stereo unspecified) | inconclusive: 5.8 µM [activator, partial curve, poor fit] | 
8 | Cc1noc(C)c1CSCC(=O)N1CCN(c2ccc(F)cc2)CC1 | inconclusive: 18.4 µM [falling, single point] | 
9 | Cc1onc(-c2ccccc2Cl)c1C(=O)Nc1nnc(C2CCCCC2)s1 | inconclusive: 29.1 µM [activator, single point] | 
10 | CCOC(=O)c1c(C)[nH]c(C(=O)CSc2nnc(-c3cccs3)n2Cc2ccccc2)c1C | inconclusive: 29.1 µM [falling, single point] | 
11 | COc1ccc2nc3sc(C(=O)NCCc4ccc(Cl)cc4)cc3cc2c1 |  | inactive: 5.56%
12 | O=C(NCC(=O)N1CCC(Cc2ccccc2)CC1)c1ccc(Cl)cc1 | inconclusive: 14.6 µM [falling, partial curve] | 
13 | CC1CCCCC1NCC(=O)Nc1ccccc1C(=O)Nc1ccccc1 (stereo unspecified) |  | inactive: -0.522%
14 | Cc1ccc(-c2nnc(NC(=O)c3ccco3)s2)cc1 | inconclusive: 4.61 µM [activator, partial curve] | 
15 | CCOc1ccc(C(NC(=O)CC)c2c(O)ccc3ccccc23)cc1 (stereo unspecified) |  | inactive: -15.7%
16 | Nc1nc(CCl)nc(N(c2ccccc2)c2ccccc2)n1 | inconclusive: 20.6 µM [falling, single point] | 
17 | CCOc1ccc(NC(=O)c2cc3cc4ccc(C)cc4nc3o2)cc1 | inconclusive: 5.17 µM [falling, partial curve, poor fit] | 
18 | COc1ccc(OC2CCN(S(=O)(=O)c3ccc(OC)c(OC)c3)CC2)cc1 | active: 16.4 µM | 
19 | CCc1nc(C)ccc1OC(=O)C12CC3CC(CC(C3)C1)C2 | inconclusive: 32.6 µM [activator, partial curve, poor fit] | 
20 | COc1ccccc1NC(=O)/C=C/c1ccc2c(c1)OCO2 | inconclusive: 7.31 µM [activator, partial curve, poor fit] | 
21 | O=C(Cn1cc(SCc2ccccc2Cl)c2ccccc21)N1CCOCC1 | inconclusive: 20.6 µM [activator, partial curve] | 

Row | Compound | Potency | activity change, negative = inhibition
22 | C/C(CC(=O)Nc1cccnc1)=N\NC(=O)C(C)Oc1ccc(Cl)cc1Cl (stereo unspecified) | inconclusive: 0.92 µM [falling, full curve, poor fit] | 
23 | Brc1ccc(-c2csc3[n+]2CCCCC3)cc1 | active: 16.4 µM | 
24 | COc1ccc(N(C(=O)c2ccco2)C(C(=O)NC2CCCC2)c2ccc(N(C)C)cc2)cc1 (stereo unspecified) |  | inactive: -2.97%
25 | CCC(C)c1ccc(OCC(=O)Nc2ccc3c(c2)C(=O)NC3=O)cc1 (stereo unspecified) | inconclusive: 18.4 µM [falling, single point] | 
26 | CC(CSc1nc2ccccc2s1)Cn1c(N2CCCC2)nc2c1c(=O)[nH]c(=O)n2C (stereo unspecified) | inconclusive: 23.1 µM [falling, partial curve, poor fit] | 
27 | CCCn1c(NCc2cc(OC)ccc2OC)nc2ccccc21 | inconclusive: 3.66 µM [activator, full curve, poor fit] | 
28 | O=C(COc1ccccc1)NCC(c1ccco1)N1CCN(c2ccccc2F)CC1 (stereo unspecified) |  | inactive: 6.63%
29 | COC(=O)c1ccccc1N(Cc1ccccc1)S(C)(=O)=O |  | inactive: -14.6%
30 | COC(=O)[C@@]12CCCCN1[C@H](c1ccc(-c3ccc(F)cc3)cc1)[C@H]1C(=O)N(C)C(=O)[C@H]12 | inconclusive: 16.4 µM [falling, single point] | 
31 | O=C(Nc1ccncc1)c1cccc(S(=O)(=O)N2CCCC2)c1 | active: 8.2 µM | 
32 | CCN(c1ccccc1)S(=O)(=O)c1ccc(C(=O)NCC(=O)Nc2ccc(F)c(F)c2F)cc1 | inconclusive: 29.1 µM [falling, single point] | 
33 | CC(=O)N1c2ccc(S(=O)(=O)NCC3CCC(C(=O)Nc4cccc(C)n4)CC3)cc2CC1C (stereo unspecified) | inconclusive: 18.4 µM [falling, partial curve, poor fit] | 
34 | CC1CCC(C(C)C)C(OC(=O)COC(=O)c2ccc(N)cc2)C1 (stereo unspecified) | inconclusive: 32.6 µM [falling, partial curve, poor fit] | 
35 | CC(CC(=O)Nc1cccc(S(=O)(=O)N2CCCCC2)c1)c1ccccc1 (stereo unspecified) | active: 13 µM | 
36 | Cc1ccc2c(c1)-c1c(ssc1=S)C(C)(C)N2C(=O)CSC1=NCCS1 | inconclusive: 16.4 µM [falling, partial curve] | 
37 | O=C(c1ccc(S(=O)(=O)Cc2ccccc2F)c([N+](=O)[O-])c1)N1CCCCCC1 | inconclusive: 29.1 µM [falling, partial curve, poor fit] | 
38 | Cc1cccc(OCC(=O)NCC(=O)N/N=C/c2ccc([N+](=O)[O-])cc2)c1 | inconclusive: 1.64 µM [activator, full curve, poor fit] | 
39 | COc1cc(/C=N/N=C(N)N)ccc1OCc1ccc(Cl)cc1 | inconclusive: 3.66 µM [activator, single point] | 
40 | COc1ccc(OC)c(Nc2c3ccccc3nc3ccccc23)c1 | inconclusive: 20.6 µM [falling, single point] | 
41 | Cc1cc(C(F)F)n2ncc(C(=O)NCCc3ccccc3Cl)c2n1 | inconclusive: 16.4 µM [falling, partial curve, poor fit] | 

Entries listed so far that contain an NH in an aromatic ring:
Row | Compound | Potency | activity change, negative = inhibition
10 | CCOC(=O)c1c(C)[nH]c(C(=O)CSc2nnc(-c3cccs3)n2Cc2ccccc2)c1C | inconclusive: 29.1 µM [falling, single point] | 
26 | CC(CSc1nc2ccccc2s1)Cn1c(N2CCCC2)nc2c1c(=O)[nH]c(=O)n2C (stereo unspecified) | inconclusive: 23.1 µM [falling, partial curve, poor fit] | 
